± gives the standard deviation of the averaged measurements. Only a part is listed here, and it is no random draw.
Compound: Nc1ncnc2c1ncn2[C@@H]1O[C@H](COP(=O)(O)OP(=O)(O)NP(=O)(O)O)[C@@H](O)[C@H]1O [adenylyl imidodiphosphate]
Assay: NP40-soluble protein abundance relative to vehicle (solubility fold change) (ratio); higher = more soluble protein in presence of AMP-PNP
Outline: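 Crude Jurkat lysate, prepared by Dounce homogenisation, was exposed to eight concentrations from 0.1 to 10 mM for 10 min at room temperature and then 3 min at 37 °C. Solubilisation used 0.8% NP40 with benzonase for 60 min at 4 °C, followed by ultracentrifugation and TMT labelling of the supernatant for LC-MS/MS. After vsn normalisation of intensities, each value is the fold change against the detergent-processed vehicle within each replicate, across three independent experiments.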

Sequences of proteins named here, by UniProt entry; tags and fusion partners are left off. A change or cut given only in a name is not applied to a line headed by its entry.
UniProt Q13485: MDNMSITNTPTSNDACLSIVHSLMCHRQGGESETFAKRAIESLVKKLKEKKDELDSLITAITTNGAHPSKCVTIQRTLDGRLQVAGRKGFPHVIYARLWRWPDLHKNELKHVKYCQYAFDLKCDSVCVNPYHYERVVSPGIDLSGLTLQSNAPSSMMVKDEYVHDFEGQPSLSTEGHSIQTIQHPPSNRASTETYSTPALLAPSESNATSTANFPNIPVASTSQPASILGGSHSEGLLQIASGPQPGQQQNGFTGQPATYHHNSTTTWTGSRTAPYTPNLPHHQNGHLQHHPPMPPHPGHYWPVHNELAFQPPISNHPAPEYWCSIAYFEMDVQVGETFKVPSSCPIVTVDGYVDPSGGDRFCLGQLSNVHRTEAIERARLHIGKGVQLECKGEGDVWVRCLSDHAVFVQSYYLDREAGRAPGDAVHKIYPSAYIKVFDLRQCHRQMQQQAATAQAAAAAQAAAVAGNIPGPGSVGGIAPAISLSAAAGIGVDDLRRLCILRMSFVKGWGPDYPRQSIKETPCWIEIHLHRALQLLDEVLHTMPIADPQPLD
UniProt P30260, whole entry: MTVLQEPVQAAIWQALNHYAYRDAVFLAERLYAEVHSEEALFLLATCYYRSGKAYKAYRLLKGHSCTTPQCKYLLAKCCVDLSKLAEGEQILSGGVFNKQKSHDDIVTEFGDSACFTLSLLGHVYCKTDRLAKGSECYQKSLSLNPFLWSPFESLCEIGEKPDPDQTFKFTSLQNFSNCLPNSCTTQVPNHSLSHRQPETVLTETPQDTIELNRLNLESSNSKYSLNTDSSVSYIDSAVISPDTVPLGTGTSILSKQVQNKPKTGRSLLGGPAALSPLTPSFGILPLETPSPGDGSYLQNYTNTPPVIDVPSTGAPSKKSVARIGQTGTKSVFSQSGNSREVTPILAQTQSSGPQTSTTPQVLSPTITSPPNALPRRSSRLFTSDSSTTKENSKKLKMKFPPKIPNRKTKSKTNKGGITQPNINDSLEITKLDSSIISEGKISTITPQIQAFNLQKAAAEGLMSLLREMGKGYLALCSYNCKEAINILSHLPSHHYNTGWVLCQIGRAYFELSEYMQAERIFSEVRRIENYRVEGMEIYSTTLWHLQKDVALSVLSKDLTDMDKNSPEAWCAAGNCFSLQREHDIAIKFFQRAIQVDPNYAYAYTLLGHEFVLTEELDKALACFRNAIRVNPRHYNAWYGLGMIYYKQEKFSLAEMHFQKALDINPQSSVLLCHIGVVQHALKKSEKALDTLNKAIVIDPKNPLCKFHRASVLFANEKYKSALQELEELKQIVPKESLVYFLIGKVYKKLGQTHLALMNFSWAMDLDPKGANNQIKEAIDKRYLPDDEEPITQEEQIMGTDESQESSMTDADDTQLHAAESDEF
UniProt Q5TC12: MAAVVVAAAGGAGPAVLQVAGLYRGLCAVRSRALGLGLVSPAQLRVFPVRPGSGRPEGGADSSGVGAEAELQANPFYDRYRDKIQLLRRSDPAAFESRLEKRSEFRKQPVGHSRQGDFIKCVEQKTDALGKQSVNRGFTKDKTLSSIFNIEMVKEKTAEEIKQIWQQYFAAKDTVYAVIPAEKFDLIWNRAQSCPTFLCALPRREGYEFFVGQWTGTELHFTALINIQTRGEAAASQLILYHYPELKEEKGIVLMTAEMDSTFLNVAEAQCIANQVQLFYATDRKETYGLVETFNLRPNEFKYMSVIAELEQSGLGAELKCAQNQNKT
UniProt P60510: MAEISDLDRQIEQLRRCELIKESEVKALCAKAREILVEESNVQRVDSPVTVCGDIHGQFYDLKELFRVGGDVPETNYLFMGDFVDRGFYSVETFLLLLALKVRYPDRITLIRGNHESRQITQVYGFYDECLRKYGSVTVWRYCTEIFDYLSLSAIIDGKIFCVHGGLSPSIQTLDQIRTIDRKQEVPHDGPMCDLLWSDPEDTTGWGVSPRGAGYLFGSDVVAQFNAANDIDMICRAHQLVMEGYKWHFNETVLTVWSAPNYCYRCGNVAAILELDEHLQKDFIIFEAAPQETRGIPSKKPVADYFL
UniProt Q9UPW5: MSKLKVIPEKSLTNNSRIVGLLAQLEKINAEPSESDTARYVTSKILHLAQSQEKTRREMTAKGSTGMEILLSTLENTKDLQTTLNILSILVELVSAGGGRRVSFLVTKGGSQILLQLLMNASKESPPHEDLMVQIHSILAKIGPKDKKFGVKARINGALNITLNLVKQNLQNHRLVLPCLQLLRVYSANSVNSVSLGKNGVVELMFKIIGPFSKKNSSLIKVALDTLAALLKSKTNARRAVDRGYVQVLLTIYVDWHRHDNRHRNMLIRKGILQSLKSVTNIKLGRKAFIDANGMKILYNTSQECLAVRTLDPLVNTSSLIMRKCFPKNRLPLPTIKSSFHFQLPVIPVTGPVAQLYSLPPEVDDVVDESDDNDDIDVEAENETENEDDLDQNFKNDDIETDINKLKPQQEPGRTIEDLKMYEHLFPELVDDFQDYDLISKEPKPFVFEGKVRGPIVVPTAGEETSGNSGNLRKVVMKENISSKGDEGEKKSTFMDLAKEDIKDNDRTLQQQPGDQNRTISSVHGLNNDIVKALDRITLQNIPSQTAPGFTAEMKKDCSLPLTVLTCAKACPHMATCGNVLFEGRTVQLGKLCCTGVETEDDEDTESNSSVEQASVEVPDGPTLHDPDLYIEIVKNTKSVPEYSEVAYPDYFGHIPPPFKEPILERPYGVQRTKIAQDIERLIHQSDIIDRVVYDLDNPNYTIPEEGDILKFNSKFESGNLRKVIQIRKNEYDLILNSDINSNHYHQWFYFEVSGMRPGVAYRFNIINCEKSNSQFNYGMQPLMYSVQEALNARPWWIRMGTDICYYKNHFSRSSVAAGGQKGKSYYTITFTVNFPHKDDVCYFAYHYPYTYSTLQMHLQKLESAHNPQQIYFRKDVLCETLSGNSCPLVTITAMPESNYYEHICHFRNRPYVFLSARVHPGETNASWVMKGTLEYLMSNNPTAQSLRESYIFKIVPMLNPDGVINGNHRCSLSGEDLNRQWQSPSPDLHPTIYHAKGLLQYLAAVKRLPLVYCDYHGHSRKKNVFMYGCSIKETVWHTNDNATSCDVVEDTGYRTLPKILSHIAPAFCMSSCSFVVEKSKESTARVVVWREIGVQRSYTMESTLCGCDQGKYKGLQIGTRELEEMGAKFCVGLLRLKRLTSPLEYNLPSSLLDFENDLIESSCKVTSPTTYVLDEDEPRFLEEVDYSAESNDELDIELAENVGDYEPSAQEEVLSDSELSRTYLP
UniProt Q9Y2M0: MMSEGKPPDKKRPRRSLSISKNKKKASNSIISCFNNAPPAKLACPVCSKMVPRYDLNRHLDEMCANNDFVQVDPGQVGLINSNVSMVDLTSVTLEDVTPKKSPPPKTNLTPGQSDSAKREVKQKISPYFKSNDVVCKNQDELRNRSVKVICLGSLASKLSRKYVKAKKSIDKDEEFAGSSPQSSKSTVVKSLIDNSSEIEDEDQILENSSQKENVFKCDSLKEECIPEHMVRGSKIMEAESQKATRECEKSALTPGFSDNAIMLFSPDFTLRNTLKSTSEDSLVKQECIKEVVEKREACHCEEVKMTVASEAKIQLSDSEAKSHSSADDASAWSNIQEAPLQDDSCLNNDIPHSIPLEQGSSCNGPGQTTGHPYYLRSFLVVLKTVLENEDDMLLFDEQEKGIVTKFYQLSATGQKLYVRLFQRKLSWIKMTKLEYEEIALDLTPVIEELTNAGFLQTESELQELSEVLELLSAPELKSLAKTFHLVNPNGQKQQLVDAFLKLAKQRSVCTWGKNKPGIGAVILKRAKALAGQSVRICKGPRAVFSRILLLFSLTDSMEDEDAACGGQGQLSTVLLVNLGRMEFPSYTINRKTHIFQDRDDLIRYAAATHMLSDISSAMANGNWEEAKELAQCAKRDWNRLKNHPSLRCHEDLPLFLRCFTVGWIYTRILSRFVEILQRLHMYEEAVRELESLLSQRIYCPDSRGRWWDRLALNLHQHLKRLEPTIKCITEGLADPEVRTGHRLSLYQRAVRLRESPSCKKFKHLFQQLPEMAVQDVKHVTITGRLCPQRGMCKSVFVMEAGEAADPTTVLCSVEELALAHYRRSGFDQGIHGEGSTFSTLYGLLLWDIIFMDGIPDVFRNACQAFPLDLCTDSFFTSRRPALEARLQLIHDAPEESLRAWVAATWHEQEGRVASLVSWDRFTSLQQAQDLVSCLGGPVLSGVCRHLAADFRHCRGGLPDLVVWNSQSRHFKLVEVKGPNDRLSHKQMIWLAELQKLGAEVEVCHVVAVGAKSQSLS
UniProt Q8IWX8: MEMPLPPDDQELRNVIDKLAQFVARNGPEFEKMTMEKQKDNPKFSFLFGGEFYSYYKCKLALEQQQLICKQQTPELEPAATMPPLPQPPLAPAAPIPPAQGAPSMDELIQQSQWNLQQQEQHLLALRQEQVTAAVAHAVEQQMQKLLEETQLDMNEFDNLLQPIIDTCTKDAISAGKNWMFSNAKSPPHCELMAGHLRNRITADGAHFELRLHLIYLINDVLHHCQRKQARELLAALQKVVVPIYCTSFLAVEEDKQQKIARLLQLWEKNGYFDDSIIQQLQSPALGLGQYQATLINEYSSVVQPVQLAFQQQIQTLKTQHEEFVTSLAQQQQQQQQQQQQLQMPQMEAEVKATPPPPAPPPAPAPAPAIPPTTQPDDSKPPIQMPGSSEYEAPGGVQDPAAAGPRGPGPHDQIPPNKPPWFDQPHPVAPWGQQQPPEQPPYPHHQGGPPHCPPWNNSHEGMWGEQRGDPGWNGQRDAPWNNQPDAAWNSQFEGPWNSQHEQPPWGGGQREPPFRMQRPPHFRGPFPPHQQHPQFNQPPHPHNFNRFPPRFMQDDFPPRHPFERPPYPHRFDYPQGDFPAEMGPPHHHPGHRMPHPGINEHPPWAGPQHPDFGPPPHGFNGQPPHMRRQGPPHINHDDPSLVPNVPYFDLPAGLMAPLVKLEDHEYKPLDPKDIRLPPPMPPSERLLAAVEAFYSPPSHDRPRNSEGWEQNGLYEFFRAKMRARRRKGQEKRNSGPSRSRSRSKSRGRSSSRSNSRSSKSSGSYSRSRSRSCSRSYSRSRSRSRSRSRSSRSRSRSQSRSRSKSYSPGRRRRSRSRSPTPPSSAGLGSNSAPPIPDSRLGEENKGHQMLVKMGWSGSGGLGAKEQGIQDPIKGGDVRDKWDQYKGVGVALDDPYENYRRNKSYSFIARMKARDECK
UniProt Q2TAA2: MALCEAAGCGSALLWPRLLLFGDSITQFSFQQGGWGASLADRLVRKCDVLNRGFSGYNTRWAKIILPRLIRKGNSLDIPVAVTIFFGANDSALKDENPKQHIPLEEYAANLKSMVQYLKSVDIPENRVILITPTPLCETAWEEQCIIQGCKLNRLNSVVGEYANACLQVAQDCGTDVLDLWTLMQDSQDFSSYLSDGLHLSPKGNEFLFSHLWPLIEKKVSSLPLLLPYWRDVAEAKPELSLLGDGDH
UniProt Q7RTR2: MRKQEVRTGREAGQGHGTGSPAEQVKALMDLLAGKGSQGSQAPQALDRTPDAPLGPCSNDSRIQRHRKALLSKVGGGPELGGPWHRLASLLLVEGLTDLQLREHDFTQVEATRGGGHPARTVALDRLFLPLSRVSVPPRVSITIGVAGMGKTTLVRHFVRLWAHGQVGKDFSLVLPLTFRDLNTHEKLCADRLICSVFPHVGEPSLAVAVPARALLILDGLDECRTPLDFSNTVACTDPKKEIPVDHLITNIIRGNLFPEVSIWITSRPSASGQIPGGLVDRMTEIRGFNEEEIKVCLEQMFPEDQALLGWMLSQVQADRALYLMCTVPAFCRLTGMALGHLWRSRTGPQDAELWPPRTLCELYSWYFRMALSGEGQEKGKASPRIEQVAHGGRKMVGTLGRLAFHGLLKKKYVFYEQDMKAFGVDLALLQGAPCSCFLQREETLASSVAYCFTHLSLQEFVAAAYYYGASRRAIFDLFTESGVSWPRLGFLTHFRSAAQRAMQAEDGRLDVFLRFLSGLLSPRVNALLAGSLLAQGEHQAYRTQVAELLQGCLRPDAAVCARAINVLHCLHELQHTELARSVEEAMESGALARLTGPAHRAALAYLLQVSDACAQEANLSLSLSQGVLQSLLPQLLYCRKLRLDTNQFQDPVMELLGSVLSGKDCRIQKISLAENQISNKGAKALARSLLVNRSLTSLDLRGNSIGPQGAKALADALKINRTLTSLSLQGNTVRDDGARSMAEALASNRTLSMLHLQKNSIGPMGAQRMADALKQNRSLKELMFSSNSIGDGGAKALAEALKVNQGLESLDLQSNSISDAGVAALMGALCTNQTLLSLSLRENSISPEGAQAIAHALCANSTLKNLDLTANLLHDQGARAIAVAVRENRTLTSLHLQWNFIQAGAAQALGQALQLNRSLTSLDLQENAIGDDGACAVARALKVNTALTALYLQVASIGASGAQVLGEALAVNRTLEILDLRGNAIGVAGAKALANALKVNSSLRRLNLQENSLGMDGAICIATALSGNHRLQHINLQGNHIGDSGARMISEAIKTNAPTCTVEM

Target	NP40-soluble protein abundance (concentration: 1mM)	NP40-soluble protein abundance (concentration: 2mM)	NP40-soluble protein abundance (concentration: 4mM)	NP40-soluble protein abundance (concentration: 6mM)	NP40-soluble protein abundance (concentration: 8mM)	NP40-soluble protein abundance (concentration: 10mM)
H0YN99 and related entries (UniProt Q9H792)	0.9969 ± 0.0086	1.038 ± 0.0094	1.04 ± 0.085	1.04 ± 0.02	1.02 ± 0.026	1.03 ± 0.042
H7BYF2 and related entries (UniProt Q9BVL2)	1.031 ± 0.0089	1.1 ± 0.095	1.04 ± 0.053	1.03 ± 0.033	1.04 ± 0.026	1.11 ± 0.06
H7BXD5 and related entries (UniProt P28676)	0.99 ± 0.028	0.985 ± 0.059	0.982 ± 0.069	1.14 ± 0.018	1.09 ± 0.09	1.07 ± 0.07
K7EIU8 and related entries (UniProt Q13485)	0.986 ± 0.065	0.936 ± 0.062	0.99 ± 0.091	1.04 ± 0.084	1.08 ± 0.08	1.03 ± 0.093
H0YKS8 and related entries (UniProt Q08431)	1.0241 ± 0.0004	0.981 ± 0.033	1.038 ± 0.0015	1.02 ± 0.028	0.994 ± 0.034	1.02 ± 0.077
H7C127 and related entries (UniProt Q9H0E9)	1.05 ± 0.042	1.085 ± 0.0036	1.07 ± 0.02	1.05 ± 0.078	1.04 ± 0.068	1.08 ± 0.081
H0Y6E6 and related entries (UniProt Q92622)	0.988 ± 0.06	0.964 ± 0.027	0.987 ± 0.03	0.982 ± 0.031	0.966 ± 0.017	0.94 ± 0.019
G5EA36 and related entries (UniProt P30260)	0.972 ± 0.022	0.974 ± 0.036	0.977 ± 0.049	0.983 ± 0.071	0.983 ± 0.093	0.986 ± 0.1
J3KNI1 and related entries (UniProt Q9H9E3)	0.974 ± 0.015	0.967 ± 0.032	0.977 ± 0.047	0.95 ± 0.028	0.947 ± 0.059	0.943 ± 0.039
I3L448 and related entries (UniProt Q5TC12)	1.01 ± 0.033	1.02 ± 0.015	1.01 ± 0.039	0.992 ± 0.029	0.965 ± 0.027	0.977 ± 0.039
J3KNZ9 (UniProt Q9HAH7)	0.9532 ± 0.005	0.972 ± 0.033	0.97 ± 0.052	0.96 ± 0.013	0.939 ± 0.024	0.94 ± 0.035
I3L1H5 and related entries (UniProt Q9BZG8)	1.002 ± 0.0078	0.9752 ± 0.0012	1.02 ± 0.017	0.992 ± 0.017	1.01 ± 0.018	0.962 ± 0.035
H0Y6A0 and related entries (UniProt Q9NP61)	0.99 ± 0.037	1.01 ± 0.069	0.994 ± 0.049	0.963 ± 0.03	0.961 ± 0.043	0.961 ± 0.057
J3QL71 and related entries (UniProt Q96FV2)	1.12 ± 0.04	1.09 ± 0.025	1.1 ± 0.031	1.05 ± 0.034	1.04 ± 0.033	1.07 ± 0.067
I3L1K6 and related entries (UniProt P12829)	0.9992 ± 0.0033	1.03 ± 0.062	0.984 ± 0.011	0.975 ± 0.051	0.956 ± 0.041	0.944 ± 0.027
H3BTA2 and related entries (UniProt P60510)	0.955 ± 0.058	0.867 ± 0.097	0.9368 ± 0.0039	0.896 ± 0.038	0.922 ± 0.013	0.869 ± 0.053
J3KNS1 and related entries (UniProt Q9UPW5)	1.009 ± 0.01	1.01 ± 0.036	1.03 ± 0.019	1.01 ± 0.023	1.01 ± 0.027	1.032 ± 0.0054
H0Y473 and related entries (UniProt O75354)	1.01 ± 0.022	1.01 ± 0.023	1.004 ± 0.0036	0.993 ± 0.023	0.984 ± 0.033	1.02 ± 0.038
H3BQM0 and related entries (UniProt Q8NDF8)	0.993 ± 0.044	0.997 ± 0.02	1.04 ± 0.05	1.01 ± 0.039	1.04 ± 0.044	1.04 ± 0.061
J3KNF5 and related entries (UniProt O15078)	0.962 ± 0.016	0.913 ± 0.052	0.92 ± 0.022	0.972 ± 0.02	0.941 ± 0.032	0.964 ± 0.04
H3BQ24 and related entries (UniProt Q9Y2M0)	0.926 ± 0.03	0.806 ± 0.097	0.8414 ± 0.0051	0.877 ± 0.06	0.858 ± 0.076	0.82 ± 0.052
H0Y8P4 and related entries (UniProt Q8TED0)	1.01 ± 0.024	1.04 ± 0.025	1.043 ± 0.0024	1.04 ± 0.012	1.09 ± 0.021	1.13 ± 0.021
J3QS41 and related entries (UniProt P42694)	0.942 ± 0.031	0.921 ± 0.04	0.942 ± 0.04	0.912 ± 0.0096	0.908 ± 0.031	0.895 ± 0.018
H3BMM5 and related entries (UniProt Q96AX1+H3BMM5)	1.023 ± 0.0022	0.919 ± 0.05	0.992 ± 0.032	0.951 ± 0.022	0.977 ± 0.026	0.9517 ± 0.0062
J3QK89 and related entries (UniProt Q8IWX8)	1.1 ± 0.038	1.16 ± 0.088	1.15 ± 0.043	1.2 ± 0.1	1.19 ± 0.089	1.25 ± 0.1
G5E9G0 and related entries (UniProt P39023)	0.939 ± 0.073	0.905 ± 0.1	0.899 ± 0.11	0.867 ± 0.096	0.786 ± 0.036	0.875 ± 0.14
J3QLS3 and related entries (UniProt Q9Y2R9)	1.01 ± 0.066	1.03 ± 0.033	0.964 ± 0.064	0.965 ± 0.11	0.975 ± 0.1	0.893 ± 0.072
UniProt I3L0E3	1.02 ± 0.046	0.983 ± 0.096	0.972 ± 0.063	0.963 ± 0.084	0.938 ± 0.12	0.956 ± 0.13
H7C5G1 and related entries (UniProt Q2TAA2)	0.995 ± 0.037	0.975 ± 0.015	0.98 ± 0.028	0.972 ± 0.016	0.965 ± 0.022	0.981 ± 0.028
H3BLT9 and related entries (UniProt Q7RTR2)	0.969 ± 0.0088	0.9698 ± 0.0089	0.9643 ± 0.0042	0.947 ± 0.038	0.947 ± 0.029	0.953 ± 0.032

Individual results from above:
H0YN99 and related entries (UniProt Q9H792) | NP40-soluble protein abundance (concentration: 2mM): 1.038 ± 0.0094
H3BMM5 and related entries (UniProt Q96AX1+H3BMM5) | NP40-soluble protein abundance (concentration: 8mM): 0.977 ± 0.026

Source: the supplement of paper PMC6411743
